{
  "source": "patent US9491935B2",
  "about": "“Animal models of neurological disorders” (Ann & Robert H. Lurie Children's Hospital of Chicago, priority 2009, dated 2016)",
  "test_system": "Evf1 TS/TS and Evf1+/+ mice",
  "test": "Unbiased conditioned place preference (CPP) assay with cocaine",
  "type": "in vivo, mouse",
  "conditions": "5.0 mg/kg",
  "note": "“Also recorded” adds a separate entry of the source. At least one structure is not confirmed: it was looked up by name or label, or the drawing left a doubt.",
  "data": [
    {"smiles": "COC(=O)[C@H]1[C@@H](OC(=O)c2ccccc2)C[C@@H]2CC[C@H]1N2C", "note": "[cocaine]", "values": [
      {"measurement": "preference for the cocaine side", "setting": "Evf1+/+ wild-type littermates", "value": "do not exhibit a preference for the cocaine side"},
      {"measurement": "preference for the cocaine side", "setting": "Evf1 TS/TS mice", "value": "exhibit a preference for the cocaine side; also recorded: display a preference for cocaine"}
    ]}
  ]
}
